Measured values taken from the supplement of paper PMC10849652.
The other results are listed elsewhere or left out.

Protein sequences, listed by entry. Tags and fused reporters are not part of them. Lines headed by an entry give the natural chain unless they say otherwise; changes in a name come on top.
UniProt Q8NC60: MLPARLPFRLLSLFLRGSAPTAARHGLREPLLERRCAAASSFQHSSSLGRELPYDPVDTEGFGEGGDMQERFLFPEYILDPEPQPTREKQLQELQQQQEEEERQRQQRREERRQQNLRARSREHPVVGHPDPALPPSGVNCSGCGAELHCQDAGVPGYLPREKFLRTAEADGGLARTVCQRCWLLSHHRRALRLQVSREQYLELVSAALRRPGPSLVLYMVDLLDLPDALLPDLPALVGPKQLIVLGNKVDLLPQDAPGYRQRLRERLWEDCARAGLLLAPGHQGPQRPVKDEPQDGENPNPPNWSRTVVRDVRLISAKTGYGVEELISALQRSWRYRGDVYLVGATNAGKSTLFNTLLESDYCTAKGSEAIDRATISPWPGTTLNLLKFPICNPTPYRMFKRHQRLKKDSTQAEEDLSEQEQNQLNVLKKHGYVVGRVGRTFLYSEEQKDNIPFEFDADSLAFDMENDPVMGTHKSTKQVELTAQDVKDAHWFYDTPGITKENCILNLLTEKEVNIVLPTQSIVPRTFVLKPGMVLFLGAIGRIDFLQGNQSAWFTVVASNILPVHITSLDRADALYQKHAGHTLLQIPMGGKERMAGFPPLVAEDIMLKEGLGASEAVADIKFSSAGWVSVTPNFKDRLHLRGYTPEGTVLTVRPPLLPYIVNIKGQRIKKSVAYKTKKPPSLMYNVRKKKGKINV
UniProt Q8NBF2: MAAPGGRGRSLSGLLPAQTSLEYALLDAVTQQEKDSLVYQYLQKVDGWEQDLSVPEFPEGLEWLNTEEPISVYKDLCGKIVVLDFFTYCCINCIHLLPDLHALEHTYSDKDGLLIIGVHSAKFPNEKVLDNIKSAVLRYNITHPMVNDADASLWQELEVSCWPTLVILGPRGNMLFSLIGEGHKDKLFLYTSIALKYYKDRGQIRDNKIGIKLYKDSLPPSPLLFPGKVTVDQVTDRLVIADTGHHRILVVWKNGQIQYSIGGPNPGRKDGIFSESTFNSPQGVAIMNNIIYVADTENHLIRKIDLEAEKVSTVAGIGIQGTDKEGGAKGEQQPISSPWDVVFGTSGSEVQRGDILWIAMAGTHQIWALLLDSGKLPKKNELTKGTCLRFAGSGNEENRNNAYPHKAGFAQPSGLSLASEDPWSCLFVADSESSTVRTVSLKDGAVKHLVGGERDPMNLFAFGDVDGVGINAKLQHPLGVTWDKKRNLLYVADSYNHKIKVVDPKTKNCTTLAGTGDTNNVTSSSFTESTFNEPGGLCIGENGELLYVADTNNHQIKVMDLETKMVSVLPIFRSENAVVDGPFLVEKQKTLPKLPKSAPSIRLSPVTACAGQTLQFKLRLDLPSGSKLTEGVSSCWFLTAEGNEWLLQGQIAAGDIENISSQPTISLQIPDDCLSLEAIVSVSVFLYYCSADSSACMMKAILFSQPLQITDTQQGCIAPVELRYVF
UniProt Q9UHY1: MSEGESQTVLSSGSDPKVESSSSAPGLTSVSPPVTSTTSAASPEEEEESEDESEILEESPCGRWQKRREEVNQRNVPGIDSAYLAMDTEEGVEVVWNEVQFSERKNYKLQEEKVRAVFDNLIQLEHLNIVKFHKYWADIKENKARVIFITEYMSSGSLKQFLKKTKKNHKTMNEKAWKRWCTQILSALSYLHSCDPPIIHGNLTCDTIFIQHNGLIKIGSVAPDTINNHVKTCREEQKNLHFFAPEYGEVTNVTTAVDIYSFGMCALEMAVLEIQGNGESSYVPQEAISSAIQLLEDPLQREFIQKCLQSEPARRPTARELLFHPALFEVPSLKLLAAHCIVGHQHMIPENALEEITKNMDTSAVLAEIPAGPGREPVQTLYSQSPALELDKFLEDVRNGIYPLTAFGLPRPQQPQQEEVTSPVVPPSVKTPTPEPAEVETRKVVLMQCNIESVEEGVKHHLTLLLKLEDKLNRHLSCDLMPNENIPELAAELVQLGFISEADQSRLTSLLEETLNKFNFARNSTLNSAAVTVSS
UniProt O43847: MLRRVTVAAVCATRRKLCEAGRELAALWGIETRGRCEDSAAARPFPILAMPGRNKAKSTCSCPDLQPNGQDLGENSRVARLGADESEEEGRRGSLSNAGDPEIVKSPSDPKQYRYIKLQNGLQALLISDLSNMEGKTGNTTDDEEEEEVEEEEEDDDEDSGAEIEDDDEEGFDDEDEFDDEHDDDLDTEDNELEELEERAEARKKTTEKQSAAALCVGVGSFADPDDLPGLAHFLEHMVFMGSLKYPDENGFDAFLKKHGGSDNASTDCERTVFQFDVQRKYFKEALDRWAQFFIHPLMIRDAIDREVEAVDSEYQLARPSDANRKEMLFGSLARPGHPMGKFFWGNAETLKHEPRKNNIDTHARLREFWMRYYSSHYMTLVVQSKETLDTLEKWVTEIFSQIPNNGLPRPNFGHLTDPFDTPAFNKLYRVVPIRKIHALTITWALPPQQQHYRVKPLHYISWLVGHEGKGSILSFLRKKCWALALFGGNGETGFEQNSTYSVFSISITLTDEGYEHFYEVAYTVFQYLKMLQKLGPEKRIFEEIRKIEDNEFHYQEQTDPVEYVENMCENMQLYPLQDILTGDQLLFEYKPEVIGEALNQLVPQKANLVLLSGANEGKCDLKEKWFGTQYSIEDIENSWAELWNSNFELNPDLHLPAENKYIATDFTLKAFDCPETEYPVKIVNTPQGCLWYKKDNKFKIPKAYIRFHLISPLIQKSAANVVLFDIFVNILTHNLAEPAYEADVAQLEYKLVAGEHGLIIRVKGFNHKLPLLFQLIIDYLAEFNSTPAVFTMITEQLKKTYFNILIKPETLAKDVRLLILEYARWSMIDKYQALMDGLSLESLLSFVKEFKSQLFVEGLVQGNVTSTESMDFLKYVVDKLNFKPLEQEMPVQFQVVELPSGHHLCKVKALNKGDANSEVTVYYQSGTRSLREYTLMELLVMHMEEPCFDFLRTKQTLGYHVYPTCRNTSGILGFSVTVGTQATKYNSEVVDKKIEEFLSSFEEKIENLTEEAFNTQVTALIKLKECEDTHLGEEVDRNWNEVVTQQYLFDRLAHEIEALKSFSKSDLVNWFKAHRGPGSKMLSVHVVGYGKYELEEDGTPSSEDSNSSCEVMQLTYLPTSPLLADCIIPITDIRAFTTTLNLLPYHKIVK
UniProt Q8TD19: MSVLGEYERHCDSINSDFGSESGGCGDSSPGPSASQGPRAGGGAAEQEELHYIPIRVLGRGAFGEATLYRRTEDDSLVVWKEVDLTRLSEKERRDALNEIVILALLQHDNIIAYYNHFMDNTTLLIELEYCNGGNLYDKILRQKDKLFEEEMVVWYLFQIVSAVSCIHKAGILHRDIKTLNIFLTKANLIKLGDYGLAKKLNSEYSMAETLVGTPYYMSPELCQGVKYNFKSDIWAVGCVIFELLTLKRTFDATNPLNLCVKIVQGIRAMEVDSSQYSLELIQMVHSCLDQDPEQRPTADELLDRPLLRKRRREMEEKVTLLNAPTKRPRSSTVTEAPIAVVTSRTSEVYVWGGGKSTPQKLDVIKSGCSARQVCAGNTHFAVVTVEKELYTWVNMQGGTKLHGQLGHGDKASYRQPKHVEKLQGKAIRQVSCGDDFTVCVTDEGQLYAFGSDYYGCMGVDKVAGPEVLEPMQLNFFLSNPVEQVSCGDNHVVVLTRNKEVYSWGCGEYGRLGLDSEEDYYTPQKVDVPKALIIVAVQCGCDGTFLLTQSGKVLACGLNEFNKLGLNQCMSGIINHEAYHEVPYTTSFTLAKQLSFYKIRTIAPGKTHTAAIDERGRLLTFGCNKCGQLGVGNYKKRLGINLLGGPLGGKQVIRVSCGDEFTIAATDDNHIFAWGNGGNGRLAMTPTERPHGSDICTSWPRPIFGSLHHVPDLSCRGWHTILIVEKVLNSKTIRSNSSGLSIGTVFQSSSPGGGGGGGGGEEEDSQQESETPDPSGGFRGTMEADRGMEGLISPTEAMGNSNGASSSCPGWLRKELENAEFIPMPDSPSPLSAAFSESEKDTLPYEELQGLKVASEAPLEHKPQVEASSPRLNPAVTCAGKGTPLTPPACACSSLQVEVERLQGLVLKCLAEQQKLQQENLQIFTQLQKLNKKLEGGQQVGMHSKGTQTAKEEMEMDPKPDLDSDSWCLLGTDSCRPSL
UniProt Q6ZNB6: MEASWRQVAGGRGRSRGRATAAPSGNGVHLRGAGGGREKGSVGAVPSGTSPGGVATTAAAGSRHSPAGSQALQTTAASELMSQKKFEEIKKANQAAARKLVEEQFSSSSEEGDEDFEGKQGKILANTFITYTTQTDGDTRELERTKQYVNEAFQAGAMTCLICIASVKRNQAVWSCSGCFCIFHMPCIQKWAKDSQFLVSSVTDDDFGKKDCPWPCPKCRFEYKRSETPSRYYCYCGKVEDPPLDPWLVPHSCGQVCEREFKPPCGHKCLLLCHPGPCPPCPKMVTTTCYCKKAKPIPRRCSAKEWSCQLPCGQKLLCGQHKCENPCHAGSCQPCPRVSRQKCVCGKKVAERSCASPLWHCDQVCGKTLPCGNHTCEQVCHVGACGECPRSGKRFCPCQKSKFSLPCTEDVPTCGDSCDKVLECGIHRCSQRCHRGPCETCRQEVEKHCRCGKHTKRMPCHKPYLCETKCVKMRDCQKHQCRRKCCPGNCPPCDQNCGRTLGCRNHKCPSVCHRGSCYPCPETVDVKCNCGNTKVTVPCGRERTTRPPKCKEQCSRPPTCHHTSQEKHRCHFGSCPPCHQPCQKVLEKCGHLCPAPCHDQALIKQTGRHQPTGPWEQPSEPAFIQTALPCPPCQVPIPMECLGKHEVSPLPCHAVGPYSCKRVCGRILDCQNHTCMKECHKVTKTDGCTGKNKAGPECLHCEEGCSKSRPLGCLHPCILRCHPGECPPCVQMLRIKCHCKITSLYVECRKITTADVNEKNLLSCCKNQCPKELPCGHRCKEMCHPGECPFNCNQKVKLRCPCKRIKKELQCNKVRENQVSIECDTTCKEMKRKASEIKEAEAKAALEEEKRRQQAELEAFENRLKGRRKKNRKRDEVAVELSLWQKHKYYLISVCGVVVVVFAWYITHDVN
UniProt O75414: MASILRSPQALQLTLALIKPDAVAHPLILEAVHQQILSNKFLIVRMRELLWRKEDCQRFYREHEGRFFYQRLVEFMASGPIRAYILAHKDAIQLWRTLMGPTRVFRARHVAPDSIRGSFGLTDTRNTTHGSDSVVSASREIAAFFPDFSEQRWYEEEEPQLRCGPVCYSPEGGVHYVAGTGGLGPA
UniProt Q8N8Q9: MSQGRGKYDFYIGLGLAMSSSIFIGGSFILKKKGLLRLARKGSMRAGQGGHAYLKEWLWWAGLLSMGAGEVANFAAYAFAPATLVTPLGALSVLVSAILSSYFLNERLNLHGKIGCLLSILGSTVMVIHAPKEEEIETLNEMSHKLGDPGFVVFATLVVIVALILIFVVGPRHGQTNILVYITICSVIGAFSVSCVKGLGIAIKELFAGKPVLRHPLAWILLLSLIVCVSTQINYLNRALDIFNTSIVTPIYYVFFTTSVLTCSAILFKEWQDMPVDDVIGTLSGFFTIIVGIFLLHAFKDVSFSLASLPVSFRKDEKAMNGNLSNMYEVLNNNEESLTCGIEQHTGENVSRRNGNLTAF
UniProt Q9Y697: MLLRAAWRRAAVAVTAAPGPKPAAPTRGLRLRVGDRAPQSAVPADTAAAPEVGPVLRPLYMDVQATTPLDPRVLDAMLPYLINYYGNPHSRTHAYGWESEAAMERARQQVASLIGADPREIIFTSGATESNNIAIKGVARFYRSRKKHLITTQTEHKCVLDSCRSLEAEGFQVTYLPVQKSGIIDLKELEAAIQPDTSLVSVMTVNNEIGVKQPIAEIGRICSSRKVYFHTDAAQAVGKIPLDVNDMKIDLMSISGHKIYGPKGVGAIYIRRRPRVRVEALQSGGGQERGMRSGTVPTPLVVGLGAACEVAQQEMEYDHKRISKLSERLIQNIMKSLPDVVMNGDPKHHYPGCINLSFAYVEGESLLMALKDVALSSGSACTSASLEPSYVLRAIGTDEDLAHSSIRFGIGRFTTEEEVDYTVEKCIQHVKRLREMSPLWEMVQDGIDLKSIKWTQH
UniProt Q86X76: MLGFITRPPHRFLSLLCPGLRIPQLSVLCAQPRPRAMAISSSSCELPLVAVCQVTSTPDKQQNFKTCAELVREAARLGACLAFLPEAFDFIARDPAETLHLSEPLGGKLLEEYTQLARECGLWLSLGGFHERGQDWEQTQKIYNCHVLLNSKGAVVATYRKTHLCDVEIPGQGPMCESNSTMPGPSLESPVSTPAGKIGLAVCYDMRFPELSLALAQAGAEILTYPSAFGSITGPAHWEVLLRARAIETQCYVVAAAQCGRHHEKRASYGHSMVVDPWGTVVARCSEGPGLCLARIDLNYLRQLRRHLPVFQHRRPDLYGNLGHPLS
UniProt P40261: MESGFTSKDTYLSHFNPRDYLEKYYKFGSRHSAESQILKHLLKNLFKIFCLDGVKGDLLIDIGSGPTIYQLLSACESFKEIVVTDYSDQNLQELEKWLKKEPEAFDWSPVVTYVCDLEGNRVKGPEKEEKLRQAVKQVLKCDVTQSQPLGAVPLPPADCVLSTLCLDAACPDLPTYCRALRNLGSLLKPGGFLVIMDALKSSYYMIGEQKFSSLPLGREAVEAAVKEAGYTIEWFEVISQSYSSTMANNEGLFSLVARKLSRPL

compound: CC1=C2C(=CC=C1)N=C(N(C2=O)C3=CC=CC=C3C)CN4C=NC5=C(N=CN=C54)N; assay: log2 fold change, soluble protein after heating vs DMSO (PISA); higher = thermal stabilisation; K562 cells, 10 uM, 30 min; active = over 0.2 and 3.5 SD of the protein, either way, in both replicates (recomputed)
Summary of the method: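 K562 cells at 2×10^6 cells/mL were treated with 10 μM compound for 30 min. Aliquots were heated for 3 min across 48°C-58°C, pooled, and extracted in PBS with 0.5% NP-40 at 4°C; soluble protein was the supernatant after 21,000xg for 90 min. Soluble protein was quantified by TMTpro 16plex LC-MS/MS with channel sums equalised, and reported as log2 fold change in thermal stability against DMSO controls, with values from duplicates.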

Row | Target | log2 fold change
1 | NFIA isoform 4 (UniProt Q12857) | inactive: 0.056
2 | NOP56 (UniProt O00567) | inactive: -0.281
3 | NFIC (UniProt P08651) | inactive: 0.022
4 | NR2F6 (UniProt P10588) | inactive: 0.006
5 | NSD3 (UniProt Q9BZ95) | inactive: -0.309
6 | NOA1 (UniProt Q8NC60) | inactive: 0.178
7 | NIPSNAP3B (UniProt Q9BS92) | inactive: 0.017
8 | NHLRC2 (UniProt Q8NBF2) | inactive: 0.127
9 | NOMO1 (UniProt Q15155) | inactive: -0.113
10 | NOLC1 isoform 2 (UniProt Q14978) | inactive: 0.002
11 | NMT1 (UniProt P30419) | inactive: -0.001
12 | NEU1 (UniProt Q99519) | inactive: 0.047
13 | NELFA (UniProt Q9H3P2) | inactive: 0.056
14 | NIBAN1 (UniProt Q9BZQ8) | inactive: 0.056
15 | NRF1 isoform 4 (UniProt Q16656) | inactive: 0.085
16 | NRAS (UniProt P01111) | inactive: -0.018
17 | NISCH (UniProt Q9Y2I1) | inactive: 0.036
18 | NPC1 (UniProt O15118) | inactive: -0.017
19 | NPTN (UniProt Q9Y639) | inactive: 0.033

Given as a markdown table: entries from further up

| Row | Target | log2 fold change |
| --- | --- | --- |
| 6 | NOA1 (UniProt Q8NC60) | inactive: 0.178 |
| 7 | NIPSNAP3B (UniProt Q9BS92) | inactive: 0.017 |
| 8 | NHLRC2 (UniProt Q8NBF2) | inactive: 0.127 |
| 9 | NOMO1 (UniProt Q15155) | inactive: -0.113 |
| 10 | NOLC1 isoform 2 (UniProt Q14978) | inactive: 0.002 |
| 11 | NMT1 (UniProt P30419) | inactive: -0.001 |
| 12 | NEU1 (UniProt Q99519) | inactive: 0.047 |
| 13 | NELFA (UniProt Q9H3P2) | inactive: 0.056 |
| 14 | NIBAN1 (UniProt Q9BZQ8) | inactive: 0.056 |

(further entries)

Row | Target | log2 fold change
20 | NFATC4 isoform 2 (UniProt Q14934) | inactive: 0.156
21 | NRBP1 (UniProt Q9UHY1) | inactive: 0.066
22 | NES (UniProt P48681) | inactive: 0.011
23 | NSFL1C isoform 5 (UniProt Q9UNZ2) | inactive: 0.055
24 | NMRAL1 (UniProt Q9HBL8) | inactive: 0.025
25 | NFATC2IP (UniProt Q8NCF5) | inactive: 0.039
26 | NRDC isoform 2 (UniProt O43847) | inactive: 0.037
27 | NOC2L (UniProt Q9Y3T9) | inactive: 0.08
28 | NEK9 (UniProt Q8TD19) | inactive: 0.031
29 | NFXL1 (UniProt Q6ZNB6) | inactive: 0.084
30 | NME6 (UniProt O75414) | inactive: 0.032
31 | NIPA2 (UniProt Q8N8Q9) | inactive: -0.036
32 | NEMF (UniProt O60524) | inactive: -0.164
33 | NFS1 (UniProt Q9Y697) | inactive: 0.053
34 | NIT1 (UniProt Q86X76) | inactive: -0.023
35 | NF2 (UniProt P35240) | inactive: 0.093
36 | NNMT (UniProt P40261) | inactive: 0.078
37 | NIPSNAP2 (UniProt O75323) | inactive: 0.036
